{"sequences": {"note": "Chains of the proteins cited; added tags and fusions are not shown.", "UniProt P53350, whole entry, looked up": "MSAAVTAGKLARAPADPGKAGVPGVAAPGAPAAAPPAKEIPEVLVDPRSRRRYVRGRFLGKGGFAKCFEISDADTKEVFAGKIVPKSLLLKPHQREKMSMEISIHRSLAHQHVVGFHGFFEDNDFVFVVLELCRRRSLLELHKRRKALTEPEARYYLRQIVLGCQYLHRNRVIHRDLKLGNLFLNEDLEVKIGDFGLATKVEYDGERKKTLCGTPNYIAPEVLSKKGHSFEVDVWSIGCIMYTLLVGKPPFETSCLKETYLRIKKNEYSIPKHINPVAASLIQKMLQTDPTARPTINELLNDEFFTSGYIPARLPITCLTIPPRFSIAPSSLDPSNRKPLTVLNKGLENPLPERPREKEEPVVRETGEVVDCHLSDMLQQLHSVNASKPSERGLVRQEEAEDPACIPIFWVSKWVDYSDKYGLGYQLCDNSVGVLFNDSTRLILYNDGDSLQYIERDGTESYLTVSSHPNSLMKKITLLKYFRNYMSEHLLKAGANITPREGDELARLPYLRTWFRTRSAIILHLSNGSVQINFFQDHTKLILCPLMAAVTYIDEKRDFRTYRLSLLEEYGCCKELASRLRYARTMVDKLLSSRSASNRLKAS"}, "source": "PubChem BioAssay AID720504", "about": "(National Center for Advancing Translational Sciences (NCATS), 2013)", "note": "Where “and” joins values, the source holds several entries; their conditions need not be identical. Identical values can stand only once. The campaign covered roughly 360,000 compounds. About 10,000 (2.8%) were called active. Inconclusive means that the source gave no clear call. Such entries were picked first, then a sample of the others. Calls follow the shape of the dose curve; as a rule, active = well fitted inhibition curve with a large enough effect; inconclusive = small, poorly fitted or top-dose-only effect; inactive = flat fitted curve, though single readings scatter. Where the call is inconclusive, the potency comes from a doubtful curve fit. % is scaled to controls: 0 for no effect and ±100 for the full control effect; potency is read from the fitted curve at half-maximal effect.", "data": [{"molecular_target": "Serine/threonine-protein kinase PLK1 (Homo sapiens) (UniProt P53350)", "assay": "qHTS for Inhibitors of PLK1-PDB (polo-like kinase 1 - polo-box domain): Primary Screen; also: nearly all actives have a fitted effect of over 65% in size; as to max response, negative = inhibition: series mostly up to about 57 µM", "conditions": "Plk1 PBD binding of FITC phosphopeptide, fluorescence polarization", "values": [{"smiles": "COc1ccc(CNc2nc(SCc3cc(=O)n4cc(Cl)ccc4n3)nc3ccccc23)cc1", "max response, negative = inhibition": "inactive: -14.6%"}, {"smiles": "COc1ccc(-c2nc(CS(=O)CC(=O)NCc3ccccn3)c(C)o2)cc1", "note": "(stereo unspecified)", "Potency": "inconclusive: 26.7 µM [inhibitor, partial curve]"}, {"smiles": "COc1ccc(Cc2c(-c3ccco3)nc3ccc(Br)cn23)c(C)c1", "Potency": "active: 23.8 µM"}, {"smiles": "N#Cc1c(/N=C/c2ccc(-c3ccccc3C(=O)O)o2)sc2c1CCCC2", "Potency": "active: 37.7 µM"}, {"smiles": "Cc1c(Cl)cnc(NC(=O)COC(=O)c2ccc([N+](=O)[O-])s2)c1Cl", "Potency": "inconclusive: 18.9 µM [inhibitor, single point]"}, {"smiles": "O=S(=O)(c1ccccc1)c1nc(-c2ccccc2)oc1N1CCCC1", "Potency": "inconclusive: 33.6 µM [inhibitor, single point]"}, {"smiles": "COC(=O)c1ccc(NC2CC(=O)N(c3ccccc3C)C2=O)cc1", "note": "(stereo unspecified)", "max response, negative = inhibition": "inactive: -4.84%"}, {"smiles": "Cc1cc(C(=O)NCc2cccs2)c(C)o1", "Potency": "inconclusive: 33.6 µM [inhibitor, partial curve, poor fit]"}, {"smiles": "COc1ccccc1CNC(=O)N/C=C/c1ccc(Cl)cc1", "Potency": "inconclusive: 26.7 µM [inhibitor, single point]"}, {"smiles": "COc1ccc(C(=O)NC(=S)NNC(=O)c2ccc(NC(=O)C(C)C)cc2)cc1", "Potency": "inconclusive: 21.2 µM [inhibitor, single point]"}, {"smiles": "O=c1c2ccccc2sn1-c1cc(S(=O)(=O)N2CCOCC2)ccc1N1CCOCC1", "Potency": "active: 1.5 µM and active: 844 nM"}, {"smiles": "COc1ccc(-c2nc(CS(=O)(=O)CC(=O)NC3CCCCC3C)c(C)o2)cc1", "note": "(stereo unspecified)", "Potency": "active: 23.8 µM"}, {"smiles": "Cc1cc(C)[n+](C)n1CC(O)Cn1c2ccccc2c2ccccc21", "note": "(stereo unspecified)", "max response, negative = inhibition": "inactive: -14%"}, {"smiles": "CN(Cc1c(C(=O)N/N=C/c2ccccc2)nnn1-c1nonc1N)c1ccccc1", "Potency": "inconclusive: 26.7 µM [inhibitor, partial curve]"}, {"smiles": "O=C(O)c1c(C(=O)O)c(-c2ccc(Cl)c(Cl)c2)n2c1CSC2", "Potency": "active: 10.6 µM"}, {"smiles": "CCCCC(=O)Nc1ccc(N2CCN(C(=O)c3ccco3)CC2)cc1", "max response, negative = inhibition": "inactive: -7.56%"}, {"smiles": "O=C1NN(c2ccccc2)C(=O)C1=Cc1ccccc1", "Potency": "active: 10.6 µM"}, {"smiles": "O=C(CSc1nnc(CNC(=O)c2cccs2)o1)Nc1ccccc1F", "max response, negative = inhibition": "inconclusive: -30.5% [inhibitor]"}, {"smiles": "O=C1/C(=C/c2ccc(O)c([N+](=O)[O-])c2)SC(=S)N1Cc1ccccc1", "Potency": "inconclusive: 16.8 µM [inhibitor, partial curve]"}, {"smiles": "Cc1csc(NC(=O)NC2(C(F)(F)F)Oc3ccccc3O2)n1", "Potency": "inconclusive: 29.9 µM [inhibitor, partial curve]"}, {"smiles": "CCCCC1(C)OC(=O)C(=Cc2ccc(N(C)C)cc2)C(=O)O1", "note": "(stereo unspecified)", "Potency": "inconclusive: 2.67 µM [inhibitor, partial curve]"}, {"smiles": "COc1ccc(/C=C/C(=O)NC(=S)Nc2ccc(C(=O)O)cc2)cc1", "max response, negative = inhibition": "inactive: -18.5%"}, {"smiles": "CCOC(=O)c1ccc(NC(=S)N2CCC(O)CC2)cc1", "Potency": "inconclusive: 26.7 µM [inhibitor, partial curve]"}, {"smiles": "CCOC(=O)c1c(N)sc2c1CCC1C(=O)N(C3CCCCC3)C(=O)C21", "note": "(stereo unspecified)", "Potency": "active: 18.9 µM"}, {"smiles": "NC1=NC[C@@H](CC2CCCCC2)N1CCc1cc(C(F)(F)F)cc(C(F)(F)F)c1", "max response, negative = inhibition": "inactive: -8.19%"}, {"smiles": "O=C(CCN1C(=O)/C(=C/c2ccccc2)SC1=S)NC1CCS(=O)(=O)C1", "note": "(stereo unspecified)", "Potency": "inconclusive: 26.7 µM [inhibitor, single point]"}, {"smiles": "Cc1coc(C)c1C(=O)CC1(O)C(=O)N(Cc2ccccc2)c2ccccc21", "note": "(stereo unspecified)", "Potency": "active: 26.7 µM"}, {"smiles": "O=C(CSc1n[nH]c(-c2cccnc2)n1)Nc1ccccc1C(F)(F)F", "max response, negative = inhibition": "inactive: 1.17%"}, {"smiles": "Cc1ccc(N2CC(O)CSC2=Nc2ccccc2)cc1", "note": "(stereo unspecified)", "max response, negative = inhibition": "inactive: -5.63%"}, {"smiles": "O=C1NC(=O)/C(=C/c2ccccc2OCc2ccccc2)S1", "Potency": "inconclusive: 37.7 µM [inhibitor, single point]"}, {"smiles": "COc1ccc(C(=O)NCc2cccnc2)cc1Br", "Potency": "inconclusive: 26.7 µM [inhibitor, single point]"}, {"smiles": "Cn1c(=O)[nH]c(=O)c2c1nc(CN1CCOCC1)n2CCc1ccccc1", "Potency": "inconclusive: 37.7 µM [inhibitor, single point]"}, {"smiles": "O=[N+]([O-])c1cccnc1-n1cnc2ccccc21", "max response, negative = inhibition": "inactive: -1.21%"}, {"smiles": "O=C(O)Cc1cccc(=O)c(O)c1C(=O)O", "Potency": "inconclusive: 23.8 µM [inhibitor, partial curve]"}, {"smiles": "COC(=O)CCCC1=CC2=CC(=O)C(C)(OC(=O)C3CCCC3)C(=O)C2=CO1", "note": "(stereo unspecified)", "Potency": "inconclusive: 18.9 µM [inhibitor, partial curve]"}, {"smiles": "COc1ccc(C=NNc2ccc([N+](=O)[O-])cc2S(=O)(=O)Nc2ccccc2C(=O)O)cc1OC", "Potency": "inconclusive: 26.7 µM [inhibitor, single point]"}, {"smiles": "O=C(/C=C/c1ccco1)Nc1nc(-c2ccccc2)cs1", "max response, negative = inhibition": "inactive: -8.1%"}, {"smiles": "O=C(NC1CCCCC1)C(c1ccc(C(F)(F)F)cc1)n1c(=O)c(-c2ccco2)nc2ccccc21", "note": "(stereo unspecified)", "max response, negative = inhibition": "inconclusive: -34.9% [inhibitor]"}, {"smiles": "CCOc1ccc(S(=O)(=O)NCCC(=O)OCC(=O)c2ccc(NC(C)=O)cc2)cc1", "max response, negative = inhibition": "inactive: -2.61%"}, {"smiles": "CC(=O)NCC(=O)OCC(=O)Nc1ccc(C(C)=O)cc1", "max response, negative = inhibition": "inactive: -5.38%"}, {"smiles": "COc1ccccc1N1CCN(CC(O)c2c(C)[nH]c3ccccc23)CC1", "note": "(stereo unspecified)", "max response, negative = inhibition": "inactive: -19.9%"}, {"smiles": "CC(C)c1nnc(NC(=O)CCS(=O)(=O)Cc2ccccc2)s1", "Potency": "inconclusive: 21.2 µM [inhibitor, partial curve]"}, {"smiles": "CCN(CC)c1cc(CS(=O)c2ccccc2)nc(-c2ccccc2)n1", "note": "(stereo unspecified)", "Potency": "inconclusive: 23.8 µM [inhibitor, partial curve]"}, {"smiles": "CCn1c(-c2cccn(Cc3ccc(Cl)cc3Cl)c2=O)n[nH]c1=S", "max response, negative = inhibition": "inactive: -18.8%"}, {"smiles": "Cc1ccc(/C=N/NC(=O)c2nnn(-c3nonc3N)c2CNc2ccccc2)cc1", "Potency": "active: 18.9 µM"}, {"smiles": "OCc1ccccc1-c1nc(NCc2ccccc2)nc2ccsc12", "Potency": "inconclusive: 23.8 µM [inhibitor, partial curve]"}]}]}
